Publication PMC3798266
Results are given in words; binding and its absence hold for the method and conditions named. For some assays here: Binding seen in cells or lysates may run through a third protein. Some binding calls cover weakened binding; strength is not graded here.

Sequences of proteins named here, by UniProt entry; tags and fusion partners are left off.
UniProt P00359: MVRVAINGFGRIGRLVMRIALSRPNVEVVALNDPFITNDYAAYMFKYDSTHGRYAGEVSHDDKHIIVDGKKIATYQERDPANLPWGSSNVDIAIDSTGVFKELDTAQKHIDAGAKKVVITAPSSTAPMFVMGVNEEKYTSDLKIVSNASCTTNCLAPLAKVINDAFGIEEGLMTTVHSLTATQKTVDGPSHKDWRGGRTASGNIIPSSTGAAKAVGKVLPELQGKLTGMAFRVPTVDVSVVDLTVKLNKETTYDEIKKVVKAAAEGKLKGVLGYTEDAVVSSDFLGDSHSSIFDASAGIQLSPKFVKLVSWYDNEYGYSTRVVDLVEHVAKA
UniProt P06700: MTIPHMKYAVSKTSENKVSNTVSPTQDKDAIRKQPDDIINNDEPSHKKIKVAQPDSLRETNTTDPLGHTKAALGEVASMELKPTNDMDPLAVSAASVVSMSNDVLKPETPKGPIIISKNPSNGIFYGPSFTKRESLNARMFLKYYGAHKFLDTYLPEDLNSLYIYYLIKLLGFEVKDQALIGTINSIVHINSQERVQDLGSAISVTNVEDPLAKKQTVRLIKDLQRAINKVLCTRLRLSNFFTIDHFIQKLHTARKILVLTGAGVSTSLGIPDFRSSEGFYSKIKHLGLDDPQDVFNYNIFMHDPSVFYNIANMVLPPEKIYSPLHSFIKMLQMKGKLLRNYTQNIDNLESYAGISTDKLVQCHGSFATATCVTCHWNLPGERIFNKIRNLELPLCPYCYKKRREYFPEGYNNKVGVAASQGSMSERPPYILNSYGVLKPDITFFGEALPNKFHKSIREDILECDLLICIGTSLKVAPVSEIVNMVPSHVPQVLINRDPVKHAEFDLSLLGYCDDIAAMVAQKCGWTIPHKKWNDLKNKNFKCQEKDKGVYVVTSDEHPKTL

Key:
[1] = target: Tdh3-myc fusion protein (budding yeast) (UniProt P00359); test: co-IP; Tdh3-myc precipitated from yeast cell lysate (lysis buffer with 1.5% Triton X-100) with anti-Myc agarose conjugate, overnight at 4°C, washed with PBS; western blot with an antibody to Sir2; control lysate from a strain lacking the myc tag
[2] = target: Tdh3-BD (Tdh3 fused to the DNA binding domain of Gal4) (budding yeast) (UniProt P00359); test: two-hybrid; Tdh3 as Gal4 DNA-binding-domain fusion, Sir2 as Gal4 activation-domain fusion; HIS3 reporter, growth on -HIS media; strain YSH625 lacking the endogenous SIR2, SIR3 and SIR4 genes

binding [1] | binding [2] | Substance
binds |  | Sir2 (from UniProt P06700 1-562)
 | binds | Sir2-AD (Sir2 fused to the transcriptional activation domain of Gal4) (from UniProt P06700 1-562)
